PubChem BioAssay AID1259308 – NCATS, 2017
In all, the deposit lists about 59,000 reagents; shown is an unselected part. Of all reagents, about 1,510 (2.6%) got an active call. 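Calls use total luciferase alone and ignore viability, so some active siRNAs may act by altering cell number.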 Unmarked entries are inactive. The numbers tell different reagents against one gene apart. Not all columns of the deposit are shown.

Aim: 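Candidate targets for better recombinant protein yield in mammalian cells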 (primary screen)
System: human HEK293 embryonic kidney cells stably expressing firefly luciferase (HEK-CMV-Luc2-Hygro)
Reagent: single siRNA against human genes, 0.8 pmol siRNA per well
Time to read-out: 72 h
Measurement: 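Reporter luminescence and viable-cell signal on separate replicate plates, given as percent of non-targeting control and median/MAD z-scores, plus per-cell luciferase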
Scale: total luciferase, z-score and total luciferase, % of control: higher = more reporter protein produced
Hit rule: 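Active when the median/MAD z-score for overall luciferase is greater than 3; a gene was taken forward for validation with new siRNAs if at least two of its three siRNAs passed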
Meaning of the calls: active = raised luciferase; inactive = no rise

For AMMECR1L #1, how do the results read?
total luciferase, z-score: 0.00767; total luciferase, % of control: 82

With AMMECR1L #2, what does the deposit list?
total luciferase, z-score: 0.349; total luciferase, % of control: 88.8

What is on record for AMMECR1L #3?
total luciferase, z-score: -0.728; total luciferase, % of control: 67.4

With IL20 #1, how do the results read?
total luciferase, z-score: -1.6; total luciferase, % of control: 50.1

How did the screen score IL20 #2?
total luciferase, z-score: 3.04 (active); total luciferase, % of control: 142

For IL20 #3, how do the results read?
total luciferase, z-score: 0.21; total luciferase, % of control: 86.1

What did the screen give for NCLN #1?
total luciferase, z-score: 2.45; total luciferase, % of control: 131

With NCLN #2, what does the deposit list?
total luciferase, z-score: 1.63; total luciferase, % of control: 114

Which result is listed for NCLN #3?
total luciferase, z-score: 0.22; total luciferase, % of control: 86.3

What did the screen give for INTS5 #1?
total luciferase, z-score: 2.81; total luciferase, % of control: 138

With INTS5 #2, how do the results read?
total luciferase, z-score: 1.59; total luciferase, % of control: 114

With INTS5 #3, how do the results read?
total luciferase, z-score: 0.502; total luciferase, % of control: 91.9

How did the screen score CNGB3 #1?
total luciferase, z-score: 0.222; total luciferase, % of control: 86.3

What did the screen give for CNGB3 #2?
total luciferase, z-score: 0.888; total luciferase, % of control: 99.5

For CNGB3 #3, what was measured?
total luciferase, z-score: -0.491; total luciferase, % of control: 72.1

Which result is listed for OR14C36 #1?
total luciferase, z-score: -0.385; total luciferase, % of control: 74.2

For OR14C36 #2, how do the results read?
total luciferase, z-score: 0.538; total luciferase, % of control: 92.6

Which result is listed for OR14C36 #3?
total luciferase, z-score: 4.24 (active); total luciferase, % of control: 166

How did the screen score PPAT #1?
total luciferase, z-score: 1.44; total luciferase, % of control: 111

What is on record for PPAT #2?
total luciferase, z-score: -0.905; total luciferase, % of control: 63.9

How did the screen score PPAT #3?
total luciferase, z-score: -1.13; total luciferase, % of control: 59.5

Which result is listed for SLC37A4 #1?
total luciferase, z-score: 2.41; total luciferase, % of control: 130

With SLC37A4 #2, what does the deposit list?
total luciferase, z-score: -0.668; total luciferase, % of control: 68.6

What did the screen give for SLC37A4 #3?
total luciferase, z-score: -1; total luciferase, % of control: 61.9

What is on record for WARS1P1 #1?
total luciferase, z-score: 3.46 (active); total luciferase, % of control: 151

With WARS1P1 #2, what was measured?
total luciferase, z-score: 0.859; total luciferase, % of control: 99

Which result is listed for WARS1P1 #3?
total luciferase, z-score: 1.34; total luciferase, % of control: 109

For POLE #1, how do the results read?
total luciferase, z-score: -0.389; total luciferase, % of control: 74.1

How did the screen score POLE #2?
total luciferase, z-score: 0.628; total luciferase, % of control: 94.4

With POLE #3, what was measured?
total luciferase, z-score: 0.214; total luciferase, % of control: 86.1

What is on record for DUX1 #1?
total luciferase, z-score: 0.364; total luciferase, % of control: 89.1

What did the screen give for DUX1 #2?
total luciferase, z-score: -0.452; total luciferase, % of control: 72.9

Which result is listed for DUX1 #3?
total luciferase, z-score: -0.14; total luciferase, % of control: 79.1

Which result is listed for ANXA13 #1?
total luciferase, z-score: 0.0431; total luciferase, % of control: 82.7

With ANXA13 #2, what does the deposit list?
total luciferase, z-score: 3.13 (active); total luciferase, % of control: 144

How did the screen score ANXA13 #3?
total luciferase, z-score: -1.11; total luciferase, % of control: 59.7

What is on record for RAMP1 #1?
total luciferase, z-score: 0.361; total luciferase, % of control: 89.1

For RAMP1 #2, what does the deposit list?
total luciferase, z-score: -0.649; total luciferase, % of control: 69

For RAMP1 #3, how do the results read?
total luciferase, z-score: -0.124; total luciferase, % of control: 79.4

With KRT6A #1, what was measured?
total luciferase, z-score: -0.181; total luciferase, % of control: 78.3

What is on record for KRT6A #2?
total luciferase, z-score: -0.517; total luciferase, % of control: 71.6

For KRT6A #3, how do the results read?
total luciferase, z-score: -0.255; total luciferase, % of control: 76.8

Hits (from the list above):
IL20 #2 → total luciferase, z-score = 3.04 (active); total luciferase, % of control = 142
OR14C36 #3 → total luciferase, z-score = 4.24 (active); total luciferase, % of control = 166
WARS1P1 #1 → total luciferase, z-score = 3.46 (active); total luciferase, % of control = 151
ANXA13 #2 → total luciferase, z-score = 3.13 (active); total luciferase, % of control = 144
